From paper PMC8407544 come the findings set out here.

No constants are given. Whether binding was seen depends on the method and setting. In cells and extracts the contact can be indirect. Some results given as binding are weak or reduced against the parent protein; the word gives no strength. Where a sequence is shown, tags or fusion partners need not be part of it.

In the experiment the target is T1, GFP:Orco (odour-receptor coreceptor, GFP-tagged) (Drosophila melanogaster) (UniProt Q9VNB5).
T1 sequence: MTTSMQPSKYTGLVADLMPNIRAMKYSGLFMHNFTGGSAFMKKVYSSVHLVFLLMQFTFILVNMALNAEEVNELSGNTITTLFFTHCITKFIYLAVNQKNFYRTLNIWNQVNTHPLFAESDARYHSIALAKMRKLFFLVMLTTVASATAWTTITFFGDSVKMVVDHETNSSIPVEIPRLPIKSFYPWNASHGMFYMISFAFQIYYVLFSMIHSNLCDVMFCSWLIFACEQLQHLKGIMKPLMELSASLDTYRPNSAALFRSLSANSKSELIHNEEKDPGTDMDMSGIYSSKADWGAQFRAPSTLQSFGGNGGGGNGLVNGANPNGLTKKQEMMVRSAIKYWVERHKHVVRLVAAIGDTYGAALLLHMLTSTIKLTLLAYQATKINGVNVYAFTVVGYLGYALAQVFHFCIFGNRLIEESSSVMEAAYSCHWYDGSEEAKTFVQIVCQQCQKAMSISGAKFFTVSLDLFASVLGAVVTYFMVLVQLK
The experiment can be described thus: co-IP; agarose beads conjugated with GFP-nanobody (chromotek); head extracts of chaGal4>UAS-GFP:Orco adults; western blot.

B1: KLP68D (kinesin-2β motor subunit) (protein, UniProt P46867 1-784)
chain: MSAKSRRPGTGSSQTPNECVQVVVRCRPMSNRERSERSPEVVNVYPNRGVVELQNVVDGNKEQRKVFTYDAAYDASATQTTLYHEVVFPLVSSVLEGFNGCIFAYGQTGTGKTFTMEGVRGNDELMGIIPRTFEQIWLHINRTENFQFLVDVSYLEIYMEELRDLLKPNSKHLEVRERGSGVYVPNLHAINCKSVEDMIKVMQVGNKNRTVGFTNMNEHSSRSHAIFMIKIEMCDTETNTIKVGKLNLIDLAGSERQSKTGASAERLKEASKINLALSSLGNVISALAESSPHVPYRDSKLTRLLQDSLGGNSKTIMIANIGPSNYNYNETLTTLRYASRAKSIQNQPIKNEDPQDAKLKEYQEEIERLKRLIGPQQQQRSEKQVTAKKQRVKKPKKETVTKEMSDSLQVSTIEQPVEDDSDPEGAESESDKENEAEVAKSNEELERERVENSKLAAKLAELEGQLVRGGKNLLDTYSERQIELEKKLVEIAERKKREIEIQQQLELQEETTLEIRERNVSLEQEVELKKRKLSKCYAKYLALQQELNDCKSDHNQDLRELEMAQNELVKELKRQLLIIDNFVPIEVKQRLYTQAKYDEEQEEWKFSSMSLPTPPGGDGKFSSKRPVSHPQRRRPTSEYALQEAKSNSPSSLRFKSENIVNYELEMPCRTTQEYRTPKVSASLQAVLAQAMQTGGDDIDIVDSHTNSLRSRLENIINANANGGAGPGAGVAVGSSIPNVRNIKSSRGLPSAASNLDSNRRPPTGRLPAKKPASAYPKARGLVNK
Consider B1, for which the binding entry is recorded as “binds”.
